At least one peptide structure holds a part that was inferred or is arguable (an end, a ring closure or a residue). Some compounds share one wording; it may come from a single statement. Where a SMILES comes first, the peptide text is derived from it. Bridges are numbered along the chain shown (N, C = ends). [ ]: non-standard residue; d: D form. Tic = O=C(O)[C@@H]1Cc2ccccc2CN1; Pen = CC(C)(S)[C@H](N)C(=O)O; Phg = N[C@H](C(=O)O)c1ccccc1; Tle = CC(C)(C)[C@H](N)C(=O)O; 3Amb = NCc1cccc(C(=O)O)c1; βAla = NCCC(=O)O
These compounds were tested on αV β3 integrin receptor (assay: Series of in vitro assays of Example II for potency and selectivity (FIG. 2)). Details: summary of assays.
Description: Such peptides can include, for example, peptides within the pharmacophore groups exemplified herein or peptides within other pharmacophore groups. […] The selectivity of a peptide for an integrin receptor involved in osteoclast binding to bone can be determined, for example, using the integrin receptor assays and cell attachment and detachment assays described herein.
Comparison of the IC50 values generated using the JY cell assay and the αV β3 ELISA, which measure binding of the αV β3 receptor involved in osteoclast binding to bone, with the αV β5 and α5 β1 receptor-specific ELISAs, which represent receptors that likely are not involved in osteoclast attachment, provides insight into the receptor selectivity of the peptides.
In the case of `CC(=O)N[C@H]1CSSC[C@@H](C(N)=O)NC(=O)[C@@H]2Cc3ccccc3CN2C(=O)[C@H](CC(N)=O)NC(=O)[C@H](CC(=O)O)NC(=O)CNC(=O)[C@H](CCCNC(=N)N)NC(=O)[C@@H]2CCCN2C(=O)[C@H](CCC(=O)O)NC1=O` [compound 108] (Ac-CEPRGDN[Tic]C-NH2; disulfide 1-9), the potency classification is reported as “particularly potent”.
With `C[C@@H]1NC(=O)CNC(=O)CC[C@@H](C(N)=O)NC(=O)[C@@H]2Cc3ccccc3CN2C(=O)[C@H](CO)NC(=O)[C@H](CC(=O)O)NC(=O)CNC(=O)[C@H](CCCNC(=N)N)NC(=O)[C@H](C)NC1=O` [compound 110] (GAARGDS[Tic]E-NH2; lactam N-9) the potency classification was “particularly potent”.
`CC(C)[C@@H]1NC(=O)[C@H](CC(=O)O)NC(=O)[C@H](CC(=O)O)NC(=O)CNC(=O)[C@H](CCCNC(=N)N)NC(=O)[C@H](C)NC(=O)[C@H](CCCNC(=N)N)NC(=O)[C@@H](NC(=O)CN)C(C)(C)SSC[C@@H](C(=O)N[C@@H](C)C(=O)O)NC1=O` [compound 138] (H-G[Pen]RARGDDVCA-OH; disulfide 2-10) was tested, and the receptor selectivity classification was “particularly receptor selective”.
In the case of `COc1ccc(C[C@@H]2NC(=O)[C@@H](NC(C)=O)C(C)(C)SSC[C@@H](C(N)=O)NC(=O)[C@@H]3Cc4ccccc4CN3C(=O)[C@H](CC(N)=O)NC(=O)[C@H](CC(=O)O)NC(=O)CNC(=O)[C@H](CCCNC(=N)N)NC(=O)[C@H](C)NC2=O)cc1` [compound 183] (Ac-[Pen]Y(Me)ARGDN[Tic]C-NH2; disulfide 1-9), the potency classification is reported as “particularly potent”.
In the case of `C[C@@H]1NC(=O)[C@H](C)NC(=O)[C@@H](NC(=O)CN)C(C)(C)SSC[C@@H](C(N)=O)NC(=O)[C@H]([C@@H](C)O)NC(=O)[C@H](CC(=O)O)NC(=O)[C@H](CC(=O)O)NC(=O)CNC(=O)[C@H](CCCNC(=N)N)NC1=O` [compound 186] (H-G[Pen]AARGDDTC-NH2; disulfide 2-10), the receptor selectivity classification is reported as “particularly receptor selective”.
`CC(=O)N[C@H]1CSSC[C@@H](C(N)=O)NC(=O)[C@@H]2Cc3ccccc3CN2C(=O)[C@H](CO)NC(=O)[C@H](CC(=O)O)NC(=O)CNC(=O)[C@H](CCCNC(=N)N)NC(=O)[C@H](C)NC(=O)[C@H](C)NC1=O` [compound 196] (Ac-CAARGDS[Tic]C-NH2; disulfide 1-9) was tested, and the potency classification was “particularly potent”.
For `C[C@@H]1NC(=O)CCNC(=O)C[C@@H](C(N)=O)NC(=O)[C@@H]2Cc3ccccc3CN2C(=O)[C@H](CC(N)=O)NC(=O)[C@H](CC(=O)O)NC(=O)CNC(=O)[C@H](CCCNC(=N)N)NC(=O)[C@H](C)NC1=O` [compound 197] ([βAla]AARGDN[Tic]D-NH2; lactam N-9), the potency classification was “particularly potent”.
With `C[C@H](NC(=O)[C@@H]1CSSC[C@H](NC(=O)CN)C(=O)N[C@@H](CCC(=O)O)C(=O)N2CCC[C@H]2C(=O)N[C@@H](CCCNC(=N)N)C(=O)NCC(=O)N[C@@H](CC(=O)O)C(=O)N[C@@H](CC(N)=O)C(=O)N2Cc3ccccc3C[C@H]2C(=O)N1)C(N)=O` [compound 199] (H-GCEPRGDN[Tic]CA-NH2; disulfide 2-10) the potency classification was “particularly potent”.
For `CC(=O)N[C@@H]1C(=O)N[C@@H](Cc2ccccc2)C(=O)N[C@@H](C)C(=O)N[C@@H](CCCNC(=N)N)C(=O)NCC(=O)N[C@@H](CC(=O)O)C(=O)N[C@@H](CO)C(=O)N2Cc3ccccc3C[C@H]2C(=O)N[C@H](C(N)=O)CSSC1(C)C` [compound 202] (Ac-[Pen]FARGDS[Tic]C-NH2; disulfide 1-9), the potency classification was “particularly potent”.
For `CC(=O)N[C@H]1CSSC[C@@H](C(N)=O)NC(=O)[C@@H]2Cc3ccccc3CN2C(=O)[C@H]([C@@H](C)O)NC(=O)[C@H](CC(=O)O)NC(=O)CNC(=O)[C@H](CCCNC(=N)N)NC(=O)[C@H](C)NC(=O)[C@H](C)NC1=O` [compound 206] (Ac-CAARGDT[Tic]C-NH2; disulfide 1-9), the potency classification was “particularly potent”.
For `CC(=O)N[C@@H]1C(=O)N[C@@H](Cc2ccccc2)C(=O)N[C@@H](C)C(=O)N[C@@H](CCCNC(=N)N)C(=O)NCC(=O)N[C@@H](CC(=O)O)C(=O)N[C@@H](CC(N)=O)C(=O)N2Cc3ccccc3C[C@H]2C(=O)N[C@H](C(N)=O)CSSC1(C)C` [compound 373] (Ac-[Pen]FARGDN[Tic]C-NH2; disulfide 1-9), the potency classification was “particularly potent”.
For `CC(=O)N[C@H]1CSSC[C@@H](C(=O)N[C@@H](C)C(=O)N[C@@H](CCCCN)C(N)=O)NC(=O)[C@@H]2Cc3ccccc3CN2C(=O)[C@H](CO)NC(=O)[C@H](CC(=O)O)NC(=O)CNC(=O)[C@H](CCCNC(=N)N)NC1=O` [compound 429] (Ac-CRGDS[Tic]CAK-NH2; disulfide 1-7), the potency classification was “particularly potent”.
In the case of `CC(=O)N[C@H]1CSSC[C@@H](C(=O)N[C@@H](CCCCN)C(N)=O)NC(=O)[C@@H]2Cc3ccccc3CN2C(=O)[C@H](CC(N)=O)NC(=O)[C@H](CC(=O)O)NC(=O)CNC(=O)[C@H](CCCNC(=N)N)NC(=O)[C@H](C)NC(=O)[C@H](C)NC1=O` [compound 431] (Ac-CAARGDN[Tic]CK-NH2; disulfide 1-9), the potency classification is reported as “particularly potent”.
For `CC(=O)N[C@H]1CSSC[C@@H](C(N)=O)NC(=O)[C@@H]2Cc3ccccc3CN2C(=O)[C@H]([C@@H](C)O)NC(=O)[C@H](CC(=O)O)NC(=O)CNC(=O)[C@H](CCCNC(=N)N)NC1=O` [compound 437] (Ac-CRGDT[Tic]C-NH2; disulfide 1-7), the potency classification was “particularly potent”.
In the case of `CC(=O)N[C@H]1CSSC(C)(C)[C@@H](C(N)=O)NC(=O)[C@@H]2Cc3ccccc3CN2C(=O)[C@H](CC(N)=O)NC(=O)[C@H](CC(=O)O)NC(=O)CNC(=O)[C@H](CCCNC(=N)N)NC1=O` [compound 441] (Ac-CRGDN[Tic][Pen]-NH2; disulfide 1-7), the potency classification is reported as “particularly potent”.
`CC[C@H](C)[C@@H]1NC(=O)[C@@H](NC(=O)CN)C(C)(C)SSC[C@@H](C(=O)N[C@@H](C)C(=O)O)NC(=O)[C@H](CC(C)C)NC(=O)[C@H](CC(=O)O)NC(=O)[C@H](CC(=O)O)NC(=O)CNC(=O)[C@H](CCCNC(=N)N)NC(=O)[C@H](C)NC1=O` [compound 448] (H-G[Pen]IARGDDLCA-OH; disulfide 2-10) was tested, and the receptor selectivity classification was “particularly receptor selective”.
For `CC(C)(C)[C@@H]1NC(=O)[C@H](CC(=O)O)NC(=O)[C@H](CC(=O)O)NC(=O)CNC(=O)[C@H](CCCNC(=N)N)NC(=O)c2cccc(c2)CNC1=O` [compound 751] (cyclo(RGDD[Tle][3Amb])), the potency classification was “particularly potent”.
`CC(=O)N[C@@H]1C(=O)N[C@@H](C)C(=O)N[C@@H](C)C(=O)N[C@@H](CCCNC(=N)N)C(=O)NCC(=O)N[C@@H](CC(=O)O)C(=O)N[C@@H](CC(N)=O)C(=O)N2Cc3ccccc3C[C@H]2C(=O)N[C@H](C(N)=O)CSSC1(C)C` [compound 832] (Ac-[Pen]AARGDN[Tic]C-NH2; disulfide 1-9) was tested, and the potency classification was “particularly potent”.

Each compound was assayed against T1, αV β3 receptor (Homo sapiens, UniProt P05106+P06756) (assay: αV β3 ELISA (competitive)). Details: comparison of ELISA IC50 values, FIG. 2.
T1 construct: The αV β3 receptor was purified from octyl-glucopyranoside-extracted human placenta; from tissue; host or cells: human placenta, octylglucoside extract
Type: binding
`CC(=O)N[C@@H]1C(=O)N[C@@H](Cc2ccccc2)C(=O)N[C@@H](C)C(=O)N[C@@H](CCCNC(=N)N)C(=O)NCC(=O)N[C@@H](CC(=O)O)C(=O)N[C@@H](CC(=O)O)C(=O)N[C@@H](c2ccccc2)C(=O)N[C@H](C(N)=O)CSSC1(C)C` [compound 84] (Ac-[Pen]FARGDD[Phg]C-NH2; disulfide 1-9) was tested, and the “receptor selectivity for αV β3 compared to αV β5 and α5 β1 binding” value was “receptor selective for αV β3”.

Reference: US5807819A, “Peptides useful for altering bone resorption” (priority 1995, dated 1998)
